{"source": "PubChem BioAssay AID1918956", "about": "(Molecular Pharmacology Branch, DTP, NCI, 2023)", "test_system": "OVCAR-5 complex spheroids, viability", "experiment": "Anticancer human tumor OVCAR-5 cell line growth inhibition;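 further: spheroids exposed to agents for seven days; 100% = DMSO vehicle control wells viability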", "settings": "active compounds read low", "source_text": "Multicellular complex tumor spheroid response to LSD1 Inhibitor Iadademstat in combination with a variety of drugs and investigational agents in selected tumor cell lines\nThe current study was undertaken to assess response to LSD1 inhibitors in combination with standard-of-care drugs and investigational agents in solid tumor complex spheroid models as well as in the K-562 leukemia. Complex spheroids include a stromal component modeled by human endothelial cells (HUVEC) and fibroblasts modeled by human mesenchymal stem cells (MSCs). The concentration ranges selected for each drug and investigational agent were based upon clinically achievable concentrations if the clinical Cmax of the agent was known.\nCompounds. The drugs and investigational agents used in this study are listed on Table 1. All of the agents used, including staurosporine (NSC755774) and gemcitabine (NSC613327), were obtained from the Developmental Therapeutics Program, NCI. FDA-approved anticancer drugs are available from the NCI at http://dtp.nci.nih.gov/branches/dscb/oncology_drugset_explanation.html. Drugs and investigational agents were >95% pure by proton nuclear magnetic resonance (NMR) and liquid chromatography/mass spectrometry (LC/MS). […] If the clinical Cmax for an agent had not been determined, the highest concentration tested was 10 microM. […]", "note": "“And” between values parts separate entries of the source, which are not always exact repeats. Identical values can stand only once. Further values from the same series stand in other lists.", "data": [{"smiles": "NC1CCC(NC2CC2c2ccccc2)CC1", "note": "(configuration not stated)", "values": [{"measurement": "viability, T/C", "setting": "compound 0.316 µM", "value": "102% [middle of 23 runs]"}, {"measurement": "viability, T/C", "setting": "compound 10 µM", "value": "92.5% and 79.5%"}]}]}
